{"sequences": {"note": "The chains behind the UniProt entries cited, without tags or fusion partners. Where a name states a change or a piece, a line headed by the entry shows the natural chain unless it says otherwise. Residues count along the entry.", "UniProt P05067, 672-711 limits assumed": "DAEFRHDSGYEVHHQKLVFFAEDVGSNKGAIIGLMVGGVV"}, "source": "patent US20040197268A1", "about": "“Method of imaging amyloid deposits using substituted rhodanine derivatives” (priority 1999, published 2004)", "target": "Aβ(1-40) (Homo sapiens, UniProt P05067)", "test": "BASSR (Beta-Amyloid Self-Seeding Radioassay), inhibitors of self-seeded amyloid fibril growth", "settings": "read-out: BASSR IC50; 30 μM soluble Aβ(1-40) + 125I-labeled Aβ(1-40), pH 7.5, 37° C., 3 to 5 hours, filtration", "method": "BASSR (Beta-Amyloid Self-Seeding Radioassay)\nAn assay for inhibitors of self-seeded amyloid fibril growth\nAssay Buffer—50 mM sodium phosphate, pH 7.5, 100 mM NaCl, 0.02% NaN3, 1 M urea (filter and store at 4° C.)\nSoluble Aβ(1-40) peptide (Bachem, Torrance, Calif.)—2.2 mg/mL in deionized H2O (stored in aliquots at −20° C., keep on ice when thawed) will self-seed after 1 week storage. Typically, the solution should be stored until no lag phase is seen in the assay.\n^125I-labeled Aβ(1-40)—150K-350K cpm/μL in 100% acetonitrile—0.1% trifluoroacetic acid (TFA)—1% β-mercaptoethanol (aliquots stored at −20° C.). ^125I-labeled Aβ(1-40) can be made in accordance with the procedure set forth by H. Levine, III in Neurobiol. Aging, 16:755 (1995), which is hereby incorporated by reference, or this reagent may be purchased from Amersham, Arlington Heights, Ill.\nFinal assay conditions: 30 μM soluble Aβ(1-40) in deionized water in assay buffer+20-50K cpm ^125I-labeled Aβ(1-40) per assay. […]\n6) Remove the aluminum film and add 200 μL/well of ice cold assay buffer with urea, collecting the radiolabeled fibrils by vacuum filtration through 0.2 μm pore size GVWP filters in 96-well plates (Millipore MAGV N22, Bedford, Mass.). Determine the radioactivity of the filters using standard methods well-known to those skilled in the art.", "note": "For part of its entries the source gives two or more results. This list holds those alone. An entry can have further records. Results that share an entry do not match, cause unknown; dose, time, organism, isomer or construct need not be as stated for each record."}
{"smiles": "CCCCN(CCCC)c1ccc(/C=C2\\SC(=S)N(Cc3nnn[nH]3)C2=O)cc1", "note": "[Example 20, (Z) 5-(4-Dibutylamino-benzylidene)-3(H-tetrazol-5-ylmethyl)-2-thioxo-thiazolidin-4-one]", "values": [{"measurement": "IC50", "value": "1 µM and 8.5 µM"}]}
